From patent US10119079B2, “Composition for removal of sulfur-containing compounds” (KURARAY CO., LTD., priority 2014, dated 2018)

Tested on: activated sludge
Assay: Biodegradability test (OECD Test Guidelines 301C, JIS K6950)
Conditions: high-concentration group (100 ppm)

## Nc1ccccc1 [aniline]
25° C.
  biodegradation ratio for 28 days (individual runs, n=2): ≥ 60%
28 days
  degradability decision (60% or more = good degradable): good degradability
